Measured values: article PMC7293033

Sequences of proteins named here, by UniProt entry; tags and fusion partners are left off. A change or cut given only in a name is not applied to a line headed by its entry.
UniProt Q9BZZ5: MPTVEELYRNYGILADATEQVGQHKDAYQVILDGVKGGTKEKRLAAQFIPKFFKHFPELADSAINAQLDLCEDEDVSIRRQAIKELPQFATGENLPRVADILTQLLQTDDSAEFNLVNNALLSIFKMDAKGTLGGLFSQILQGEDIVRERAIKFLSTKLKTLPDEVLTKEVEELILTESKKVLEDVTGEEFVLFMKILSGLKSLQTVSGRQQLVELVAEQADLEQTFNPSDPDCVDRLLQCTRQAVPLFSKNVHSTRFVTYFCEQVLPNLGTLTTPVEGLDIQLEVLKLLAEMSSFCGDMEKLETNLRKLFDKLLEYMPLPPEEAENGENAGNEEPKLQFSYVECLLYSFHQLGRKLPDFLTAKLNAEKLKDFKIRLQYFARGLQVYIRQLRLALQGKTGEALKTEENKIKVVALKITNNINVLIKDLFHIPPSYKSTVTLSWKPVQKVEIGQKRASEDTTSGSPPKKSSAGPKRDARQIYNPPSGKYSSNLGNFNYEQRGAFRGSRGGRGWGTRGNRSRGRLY
UniProt O00571: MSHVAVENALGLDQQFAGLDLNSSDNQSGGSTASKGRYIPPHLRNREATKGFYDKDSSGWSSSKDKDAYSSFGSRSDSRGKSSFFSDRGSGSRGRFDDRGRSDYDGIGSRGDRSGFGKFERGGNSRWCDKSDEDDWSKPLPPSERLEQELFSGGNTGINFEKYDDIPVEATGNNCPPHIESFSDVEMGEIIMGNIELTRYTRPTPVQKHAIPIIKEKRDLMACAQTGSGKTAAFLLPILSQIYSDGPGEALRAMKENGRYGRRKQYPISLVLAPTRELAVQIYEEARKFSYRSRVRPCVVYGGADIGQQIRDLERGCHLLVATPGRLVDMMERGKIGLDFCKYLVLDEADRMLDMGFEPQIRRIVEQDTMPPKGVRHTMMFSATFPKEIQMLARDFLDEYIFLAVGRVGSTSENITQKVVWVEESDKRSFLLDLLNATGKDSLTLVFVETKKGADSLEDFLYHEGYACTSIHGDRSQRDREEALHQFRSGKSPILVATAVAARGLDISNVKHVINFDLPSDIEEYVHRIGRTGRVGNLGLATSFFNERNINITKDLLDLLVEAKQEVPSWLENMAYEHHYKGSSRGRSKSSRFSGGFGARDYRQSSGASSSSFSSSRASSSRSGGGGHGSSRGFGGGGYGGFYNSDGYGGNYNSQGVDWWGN
UniProt P09038: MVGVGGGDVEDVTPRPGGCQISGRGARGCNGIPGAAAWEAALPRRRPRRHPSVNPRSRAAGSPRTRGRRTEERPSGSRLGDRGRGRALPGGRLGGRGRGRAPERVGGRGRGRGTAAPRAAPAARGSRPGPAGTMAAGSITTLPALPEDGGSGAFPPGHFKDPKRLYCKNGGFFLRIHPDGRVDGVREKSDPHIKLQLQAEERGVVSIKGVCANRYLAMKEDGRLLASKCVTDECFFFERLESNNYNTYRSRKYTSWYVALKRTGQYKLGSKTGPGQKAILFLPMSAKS
UniProt Q13838: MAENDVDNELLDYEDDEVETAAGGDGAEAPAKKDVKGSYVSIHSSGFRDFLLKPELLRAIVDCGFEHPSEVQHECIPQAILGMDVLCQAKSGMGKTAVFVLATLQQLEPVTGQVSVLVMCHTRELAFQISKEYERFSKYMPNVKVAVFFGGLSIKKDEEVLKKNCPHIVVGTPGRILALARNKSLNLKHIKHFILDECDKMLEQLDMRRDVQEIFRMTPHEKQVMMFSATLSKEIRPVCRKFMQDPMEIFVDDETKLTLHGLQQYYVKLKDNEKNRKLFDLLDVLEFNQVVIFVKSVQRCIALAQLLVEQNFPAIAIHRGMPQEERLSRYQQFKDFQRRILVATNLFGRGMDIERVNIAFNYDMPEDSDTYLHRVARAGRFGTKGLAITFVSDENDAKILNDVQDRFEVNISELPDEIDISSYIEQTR
UniProt O75152: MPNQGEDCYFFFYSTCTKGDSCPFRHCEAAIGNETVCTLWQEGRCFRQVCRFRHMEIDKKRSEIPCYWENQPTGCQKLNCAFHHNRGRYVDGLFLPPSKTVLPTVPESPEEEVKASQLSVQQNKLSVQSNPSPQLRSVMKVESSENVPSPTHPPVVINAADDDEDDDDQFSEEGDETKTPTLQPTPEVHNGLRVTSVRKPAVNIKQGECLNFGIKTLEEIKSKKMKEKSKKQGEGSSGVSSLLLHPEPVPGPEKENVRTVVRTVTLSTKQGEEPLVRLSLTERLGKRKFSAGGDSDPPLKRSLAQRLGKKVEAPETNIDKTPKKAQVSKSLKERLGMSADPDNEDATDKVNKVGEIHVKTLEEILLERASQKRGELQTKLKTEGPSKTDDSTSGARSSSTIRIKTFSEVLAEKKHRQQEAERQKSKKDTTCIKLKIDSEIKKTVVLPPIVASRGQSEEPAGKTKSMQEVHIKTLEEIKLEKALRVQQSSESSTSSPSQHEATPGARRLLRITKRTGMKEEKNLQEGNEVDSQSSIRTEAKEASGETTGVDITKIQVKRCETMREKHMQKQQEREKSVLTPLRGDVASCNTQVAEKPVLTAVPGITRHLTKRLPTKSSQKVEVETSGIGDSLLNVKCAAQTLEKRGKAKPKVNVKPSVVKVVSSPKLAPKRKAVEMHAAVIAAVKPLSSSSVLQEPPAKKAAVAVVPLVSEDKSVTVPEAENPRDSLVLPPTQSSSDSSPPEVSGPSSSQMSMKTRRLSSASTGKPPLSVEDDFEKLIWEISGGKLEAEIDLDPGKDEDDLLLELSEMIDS
UniProt P06730: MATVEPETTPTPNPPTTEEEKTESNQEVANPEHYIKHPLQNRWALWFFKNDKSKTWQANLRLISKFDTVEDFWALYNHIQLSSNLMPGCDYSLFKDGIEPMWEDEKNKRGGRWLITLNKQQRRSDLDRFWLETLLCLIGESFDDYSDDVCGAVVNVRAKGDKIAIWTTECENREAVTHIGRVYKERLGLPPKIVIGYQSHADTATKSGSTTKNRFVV

Columns and labels:
[1] = target: FLAG-tagged API5 WT (human) (UniProt Q9BZZ5); test: affinity purification with mass spectrometry; immunoprecipitation of FLAG-tagged API5 WT or 4Mut reconstituted in API5 knockout cells, proteomics analysis; mock as control
[2] = target: FLAG-tagged API5 4Mut (D145A/E184A/D185A/E190A) (human) (UniProt Q9BZZ5); test: as above

binding [1] | binding [2] | Substance
no binding | – | DDX3X (from UniProt O00571 1-662)
binds | no binding | FGF2 (endogenous) (from UniProt P09038)
binds | binds | UAP56 (DDX39B), endogenous (from UniProt Q13838 1-428)
binds | no binding | ZC3H11A (from UniProt O75152 1-810)
binds | no binding | eIF4E (from UniProt P06730 1-217)

Results are given in words; binding and its absence hold for the method and conditions named. In cells and extracts the contact can be indirect. A yes stands for co-enrichment or nearness to the bait. Other partners may have been found. A no says only that the protein was not detected with the bait.
